The values that follow come from patent US6384249B1, “Compounds and methods for stabilization of furfural compositions” (Hercules, Inc., priority 2000, dated 2002).

The data set can be described thus: Hot Process Liquid Simulator (HLPS) test heat exchanger, rod deposits at 500° F. The conditions noted are these: 24 ppmA.

As to `CCC(C)Nc1ccc(NC(C)CC)cc1` (centres unmarked) [Compound #1], the “Deposit Weight (rod deposits)” value is reported as 0.4 mg.

Regarding `CC(C)CC(C)N=C1C=CC(=Nc2ccccc2)C=C1` (centres unmarked) [Compound #4], the “Deposit Weight (rod deposits)” value was 0.1 mg.
